This assay concerns the target T1, Wbp1-CPLV (S. cerevisiae) (UniProt P33767).
T1 sequence: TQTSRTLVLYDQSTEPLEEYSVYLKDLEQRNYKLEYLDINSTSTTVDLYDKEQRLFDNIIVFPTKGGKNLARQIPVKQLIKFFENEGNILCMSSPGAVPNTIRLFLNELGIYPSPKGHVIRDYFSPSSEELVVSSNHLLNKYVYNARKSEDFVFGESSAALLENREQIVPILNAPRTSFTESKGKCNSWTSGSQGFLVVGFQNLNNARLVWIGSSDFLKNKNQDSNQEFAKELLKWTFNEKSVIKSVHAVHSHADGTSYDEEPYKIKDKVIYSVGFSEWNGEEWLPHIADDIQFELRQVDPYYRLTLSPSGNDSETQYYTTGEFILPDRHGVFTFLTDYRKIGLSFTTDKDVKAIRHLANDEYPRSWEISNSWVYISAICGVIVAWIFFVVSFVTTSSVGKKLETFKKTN
Put plainly: two-hybrid; split-ubiquitin (NubG prey, Cub-PLV bait) plate assay: growth without histidine, leucine and tryptophan and blue colour on X-gal, 3 days at 30°C; baits integrated in heterozygous diploids KRY518 or KRY548; positive control in haploid L40 with both fusions from plasmids.

The values that follow come from publication PMC3618304.

No constants are given. Whether binding was seen depends on the method and setting. Some entries that bind do so weakly or less than the wild type.

B1: Ost1p-Nub (protein, UniProt P41543 23-476)
chain: AQYEPPATWENVDYKRTIDVSNAYISETIEITIKNIASEPATEYFTAFESGIFSKVSFFSAYFTNEATFLNSQLLANSTTAPGDDGESEIRYGIIQFPNAISPQEEVSLVIKSFYNTVGIPYPEHVGMSEEQHLLWETNRLPLSAYDTKKASFTLIGSSSFEEYHPPNDESLLGKANGNSFEFGPWEDIPRFSSNETLAIVYSHNAPLNQVVNLRRDIWLSHWASTIQFEEYYELTNKAAKLSKGFSRLELMKQIQTQNMRQTHFVTVLDMLLPEGATDHYFTDLVGLVSTSHAERDHFFIRPRFPIFGGWNYNFTVGWTNKLSDFLHVSSGSDEKFVASIPILNGPPDTVYDNVELSVFLPEGAEIFDIDSPVPFTNVSIETQKSYFDLNKGHVKLTFSYRNLISQVANGQVLIKYDYPKSSFFKKPLSIACYIFTALMGVFVLKTLNMNVTN
For the molecule B1, the binding result is recorded as “binds”.
